Measured values from PubChem BioAssay (EPA / NIEHS).
The inconclusive results got no clear call from the source; some entries with a clear call stand among them for comparison. For some assays here: A potency beside an inconclusive call is a rough fit, not a confirmed value. The source made the active and inactive calls. Rule for the calls: active = hit-call score of the fitted dose curve at least 0.9, where 1 is the maximum; inconclusive = response in the unintended direction; inactive = score below 0.9.

Sequences of proteins named here, by UniProt entry; tags and fusion partners are left off. A change or cut given only in a name is not applied to a line headed by its entry.
UniProt P47898, whole entry, looked up: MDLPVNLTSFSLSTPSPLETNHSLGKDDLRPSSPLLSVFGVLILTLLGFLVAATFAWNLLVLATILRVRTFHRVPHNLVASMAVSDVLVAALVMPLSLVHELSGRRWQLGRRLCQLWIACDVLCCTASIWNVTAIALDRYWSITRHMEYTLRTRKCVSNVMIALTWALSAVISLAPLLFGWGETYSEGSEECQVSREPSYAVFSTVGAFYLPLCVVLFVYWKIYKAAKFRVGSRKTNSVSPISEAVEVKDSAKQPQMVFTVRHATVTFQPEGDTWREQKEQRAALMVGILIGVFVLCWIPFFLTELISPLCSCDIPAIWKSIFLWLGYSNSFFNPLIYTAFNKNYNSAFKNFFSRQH
UniProt P14416, whole entry, looked up: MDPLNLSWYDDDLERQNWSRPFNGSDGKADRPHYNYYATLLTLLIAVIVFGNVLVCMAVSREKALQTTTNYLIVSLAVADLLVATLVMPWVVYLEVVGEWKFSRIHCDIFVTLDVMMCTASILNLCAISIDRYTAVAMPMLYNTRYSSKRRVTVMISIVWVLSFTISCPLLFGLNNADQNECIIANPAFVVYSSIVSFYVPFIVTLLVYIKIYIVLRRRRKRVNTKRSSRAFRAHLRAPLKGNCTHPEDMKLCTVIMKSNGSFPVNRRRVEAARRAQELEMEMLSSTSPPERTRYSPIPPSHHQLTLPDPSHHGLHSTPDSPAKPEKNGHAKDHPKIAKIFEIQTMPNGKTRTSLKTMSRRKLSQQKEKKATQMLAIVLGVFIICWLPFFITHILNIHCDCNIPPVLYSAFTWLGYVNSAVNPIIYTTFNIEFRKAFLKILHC
UniProt O70526, whole entry, looked up: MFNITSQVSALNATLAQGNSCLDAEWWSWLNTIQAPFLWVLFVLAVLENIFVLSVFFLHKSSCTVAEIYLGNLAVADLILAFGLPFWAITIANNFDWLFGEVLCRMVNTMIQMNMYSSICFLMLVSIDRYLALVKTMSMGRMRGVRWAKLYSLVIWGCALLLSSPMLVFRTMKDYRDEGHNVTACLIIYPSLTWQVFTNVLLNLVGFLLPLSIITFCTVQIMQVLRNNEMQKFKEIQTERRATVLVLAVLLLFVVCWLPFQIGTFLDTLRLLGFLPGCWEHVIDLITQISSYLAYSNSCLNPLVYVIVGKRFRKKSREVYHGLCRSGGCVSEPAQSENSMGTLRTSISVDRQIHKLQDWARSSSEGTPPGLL
UniProt Q96RI1: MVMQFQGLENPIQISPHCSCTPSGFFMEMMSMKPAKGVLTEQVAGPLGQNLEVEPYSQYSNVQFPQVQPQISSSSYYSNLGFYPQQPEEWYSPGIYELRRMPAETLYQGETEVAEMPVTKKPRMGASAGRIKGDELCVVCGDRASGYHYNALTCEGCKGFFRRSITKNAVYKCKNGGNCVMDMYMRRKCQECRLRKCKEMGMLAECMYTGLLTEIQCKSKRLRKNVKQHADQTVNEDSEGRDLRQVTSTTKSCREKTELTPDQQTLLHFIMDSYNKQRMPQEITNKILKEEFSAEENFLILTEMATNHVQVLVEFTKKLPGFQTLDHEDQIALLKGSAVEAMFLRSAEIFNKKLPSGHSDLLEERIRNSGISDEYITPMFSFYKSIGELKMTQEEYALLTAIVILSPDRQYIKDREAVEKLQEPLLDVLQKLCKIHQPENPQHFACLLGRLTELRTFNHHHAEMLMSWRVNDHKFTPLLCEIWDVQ
UniProt P18031: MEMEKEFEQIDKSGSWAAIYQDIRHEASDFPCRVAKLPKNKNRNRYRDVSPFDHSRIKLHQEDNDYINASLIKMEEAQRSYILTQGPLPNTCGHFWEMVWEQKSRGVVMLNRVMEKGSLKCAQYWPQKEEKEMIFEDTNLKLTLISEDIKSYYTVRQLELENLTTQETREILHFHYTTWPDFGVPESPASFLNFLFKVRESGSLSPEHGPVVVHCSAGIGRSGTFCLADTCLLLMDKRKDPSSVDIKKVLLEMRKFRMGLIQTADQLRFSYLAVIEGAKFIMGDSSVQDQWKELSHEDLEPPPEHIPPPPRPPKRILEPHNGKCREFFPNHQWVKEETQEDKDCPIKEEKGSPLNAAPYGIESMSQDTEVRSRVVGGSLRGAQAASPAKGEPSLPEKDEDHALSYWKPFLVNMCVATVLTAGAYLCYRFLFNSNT
UniProt P16257, whole entry, looked up: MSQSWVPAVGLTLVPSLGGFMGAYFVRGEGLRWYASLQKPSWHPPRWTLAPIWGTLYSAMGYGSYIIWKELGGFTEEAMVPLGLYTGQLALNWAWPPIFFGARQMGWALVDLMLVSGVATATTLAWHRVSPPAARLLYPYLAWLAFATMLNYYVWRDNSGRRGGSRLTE
UniProt P10828: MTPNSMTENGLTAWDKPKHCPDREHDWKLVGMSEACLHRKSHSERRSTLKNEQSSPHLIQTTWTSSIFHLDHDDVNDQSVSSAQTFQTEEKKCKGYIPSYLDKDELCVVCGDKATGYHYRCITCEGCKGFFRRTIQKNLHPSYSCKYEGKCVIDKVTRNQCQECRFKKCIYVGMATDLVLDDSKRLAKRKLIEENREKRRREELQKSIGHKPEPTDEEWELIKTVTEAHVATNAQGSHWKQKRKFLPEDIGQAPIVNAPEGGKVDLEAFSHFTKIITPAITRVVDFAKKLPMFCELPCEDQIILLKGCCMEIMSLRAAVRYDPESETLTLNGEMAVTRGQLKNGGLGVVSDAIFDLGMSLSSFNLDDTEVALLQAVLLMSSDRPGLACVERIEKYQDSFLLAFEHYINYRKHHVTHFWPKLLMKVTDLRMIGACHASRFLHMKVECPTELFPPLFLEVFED
UniProt P49137, whole entry, looked up: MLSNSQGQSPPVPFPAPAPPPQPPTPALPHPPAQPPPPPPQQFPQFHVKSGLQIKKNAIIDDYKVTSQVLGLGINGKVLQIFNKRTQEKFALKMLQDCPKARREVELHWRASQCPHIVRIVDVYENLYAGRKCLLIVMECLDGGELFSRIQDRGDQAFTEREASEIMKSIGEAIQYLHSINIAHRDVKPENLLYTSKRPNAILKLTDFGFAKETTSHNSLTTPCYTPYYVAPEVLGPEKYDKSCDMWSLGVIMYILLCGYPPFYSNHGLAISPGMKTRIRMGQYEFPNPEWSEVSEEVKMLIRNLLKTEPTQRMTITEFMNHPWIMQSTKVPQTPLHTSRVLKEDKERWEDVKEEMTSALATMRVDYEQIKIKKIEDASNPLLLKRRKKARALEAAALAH
UniProt P62136, whole entry, looked up: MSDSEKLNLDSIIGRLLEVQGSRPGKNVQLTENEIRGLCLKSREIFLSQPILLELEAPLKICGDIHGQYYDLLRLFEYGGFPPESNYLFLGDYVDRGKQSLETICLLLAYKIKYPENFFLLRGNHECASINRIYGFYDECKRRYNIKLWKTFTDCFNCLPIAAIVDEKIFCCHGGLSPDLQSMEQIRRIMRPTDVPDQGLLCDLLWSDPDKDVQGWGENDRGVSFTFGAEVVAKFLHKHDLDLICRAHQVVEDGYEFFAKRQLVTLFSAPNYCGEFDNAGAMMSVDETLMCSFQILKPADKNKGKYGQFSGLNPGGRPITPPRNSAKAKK
UniProt P62813: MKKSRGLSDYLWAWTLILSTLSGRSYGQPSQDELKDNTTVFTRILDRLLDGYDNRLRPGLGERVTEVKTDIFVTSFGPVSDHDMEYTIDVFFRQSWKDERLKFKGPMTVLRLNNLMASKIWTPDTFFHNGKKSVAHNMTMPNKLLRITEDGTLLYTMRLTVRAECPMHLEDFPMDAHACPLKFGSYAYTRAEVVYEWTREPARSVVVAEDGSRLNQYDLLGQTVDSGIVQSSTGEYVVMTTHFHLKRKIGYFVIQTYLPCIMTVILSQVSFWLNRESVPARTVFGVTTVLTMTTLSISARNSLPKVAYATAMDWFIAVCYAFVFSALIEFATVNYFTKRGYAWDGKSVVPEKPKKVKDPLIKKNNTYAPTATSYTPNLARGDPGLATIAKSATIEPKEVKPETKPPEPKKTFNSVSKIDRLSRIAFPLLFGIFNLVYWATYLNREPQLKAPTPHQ
UniProt P49662: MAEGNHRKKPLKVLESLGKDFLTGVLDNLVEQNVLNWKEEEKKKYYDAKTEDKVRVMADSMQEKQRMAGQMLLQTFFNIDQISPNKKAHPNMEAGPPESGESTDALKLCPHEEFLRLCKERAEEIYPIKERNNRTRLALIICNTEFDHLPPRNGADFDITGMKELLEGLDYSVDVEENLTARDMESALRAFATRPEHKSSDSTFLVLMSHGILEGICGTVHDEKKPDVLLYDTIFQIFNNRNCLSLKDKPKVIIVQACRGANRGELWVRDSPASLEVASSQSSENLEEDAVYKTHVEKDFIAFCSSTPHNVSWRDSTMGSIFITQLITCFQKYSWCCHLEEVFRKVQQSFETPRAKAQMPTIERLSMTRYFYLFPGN
UniProt Q13464: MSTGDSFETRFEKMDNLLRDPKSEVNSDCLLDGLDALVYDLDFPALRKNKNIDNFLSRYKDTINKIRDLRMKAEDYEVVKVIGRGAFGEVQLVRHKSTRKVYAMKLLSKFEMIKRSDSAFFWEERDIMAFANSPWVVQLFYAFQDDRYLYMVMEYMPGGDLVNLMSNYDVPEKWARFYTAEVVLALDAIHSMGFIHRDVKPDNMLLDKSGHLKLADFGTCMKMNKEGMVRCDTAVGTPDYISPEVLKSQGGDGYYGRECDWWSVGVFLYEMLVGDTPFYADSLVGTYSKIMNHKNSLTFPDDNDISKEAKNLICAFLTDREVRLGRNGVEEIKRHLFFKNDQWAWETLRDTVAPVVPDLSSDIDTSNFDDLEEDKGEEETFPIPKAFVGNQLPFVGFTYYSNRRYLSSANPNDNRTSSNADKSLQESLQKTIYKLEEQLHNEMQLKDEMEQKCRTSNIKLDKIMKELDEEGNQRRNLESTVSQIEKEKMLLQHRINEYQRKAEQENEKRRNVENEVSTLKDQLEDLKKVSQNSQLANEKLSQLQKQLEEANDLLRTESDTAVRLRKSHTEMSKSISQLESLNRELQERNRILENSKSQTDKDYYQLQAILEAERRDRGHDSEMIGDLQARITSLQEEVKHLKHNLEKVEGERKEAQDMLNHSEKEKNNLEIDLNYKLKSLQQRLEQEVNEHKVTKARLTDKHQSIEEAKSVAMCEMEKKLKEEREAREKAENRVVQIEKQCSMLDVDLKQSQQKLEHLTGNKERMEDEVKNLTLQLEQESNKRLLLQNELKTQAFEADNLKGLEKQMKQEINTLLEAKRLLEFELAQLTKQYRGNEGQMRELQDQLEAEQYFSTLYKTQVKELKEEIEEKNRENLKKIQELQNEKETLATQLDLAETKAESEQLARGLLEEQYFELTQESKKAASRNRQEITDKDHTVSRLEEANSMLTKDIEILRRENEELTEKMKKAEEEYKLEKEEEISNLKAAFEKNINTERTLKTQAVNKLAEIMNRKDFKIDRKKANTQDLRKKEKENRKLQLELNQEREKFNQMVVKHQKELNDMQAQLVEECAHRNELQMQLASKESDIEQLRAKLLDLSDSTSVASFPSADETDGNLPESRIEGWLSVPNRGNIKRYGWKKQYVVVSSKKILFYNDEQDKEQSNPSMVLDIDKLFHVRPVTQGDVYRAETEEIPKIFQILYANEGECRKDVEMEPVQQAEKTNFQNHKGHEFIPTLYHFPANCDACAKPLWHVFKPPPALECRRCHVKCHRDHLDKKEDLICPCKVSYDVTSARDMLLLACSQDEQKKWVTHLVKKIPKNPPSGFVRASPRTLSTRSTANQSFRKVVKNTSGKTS
UniProt P08219: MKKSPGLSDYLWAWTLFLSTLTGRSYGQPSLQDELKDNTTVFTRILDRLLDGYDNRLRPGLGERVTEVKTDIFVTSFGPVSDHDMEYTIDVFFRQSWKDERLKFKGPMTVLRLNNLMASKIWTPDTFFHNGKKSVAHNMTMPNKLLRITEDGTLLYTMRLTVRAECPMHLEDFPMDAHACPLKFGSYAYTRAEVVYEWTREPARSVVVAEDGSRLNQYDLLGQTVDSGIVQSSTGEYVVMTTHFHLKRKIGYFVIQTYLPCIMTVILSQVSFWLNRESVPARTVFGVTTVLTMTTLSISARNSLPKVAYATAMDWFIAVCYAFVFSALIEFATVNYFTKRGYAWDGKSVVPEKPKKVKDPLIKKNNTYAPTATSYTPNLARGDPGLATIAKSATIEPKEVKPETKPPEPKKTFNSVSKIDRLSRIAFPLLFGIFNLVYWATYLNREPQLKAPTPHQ
UniProt P11509: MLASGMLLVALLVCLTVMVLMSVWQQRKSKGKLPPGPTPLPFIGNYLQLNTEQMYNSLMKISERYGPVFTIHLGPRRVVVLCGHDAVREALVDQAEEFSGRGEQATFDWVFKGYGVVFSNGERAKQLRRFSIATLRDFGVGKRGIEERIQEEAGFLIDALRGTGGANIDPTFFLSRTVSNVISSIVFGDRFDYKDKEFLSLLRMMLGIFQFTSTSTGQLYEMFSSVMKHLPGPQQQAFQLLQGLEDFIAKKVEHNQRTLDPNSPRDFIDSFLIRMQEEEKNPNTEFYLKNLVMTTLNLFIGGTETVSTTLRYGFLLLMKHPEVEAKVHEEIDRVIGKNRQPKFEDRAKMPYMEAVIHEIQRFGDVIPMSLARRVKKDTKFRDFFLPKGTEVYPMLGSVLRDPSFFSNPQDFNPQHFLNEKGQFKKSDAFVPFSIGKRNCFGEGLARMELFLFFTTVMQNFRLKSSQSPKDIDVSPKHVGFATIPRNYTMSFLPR

How the values were obtained:
[1] = target: human Vascular Endothelial Growth Factor Receptor 3 (VEGFR3), FLT4 (gene 2324) (UniProt P35916); experiment: NVS_ENZ_hVEGFR3: NovaScreen (NVS) Enzymatic Assay for human Vascular Endothelial Growth Factor Receptor 3 (VEGFR3) (AID 2283229)
In short: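 Cell-free recombinant VEGFR3 kinase reaction with fluorescent substrate, read 1 h after dosing by electrophoretic mobility shift separation of substrate and product. Single-concentration duplicate screen at 25 uM, then concentration-response up to 50 uM; loss of activity versus DMSO.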

[2] = target: human Serotonin, 5-Hydroxytryptamine Receptor 5A (5HT5A), HTR5A (gene 3361) (UniProt P47898); experiment: NVS_GPCR_h5HT5A: NovaScreen (NVS) G Protein-Coupled Receptor Assay for human Serotonin, 5-Hydroxytryptamine Receptor 5A (5HT5A) (AID 2283251)
In short: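 Cell-free radioligand displacement binding on HEK293-derived membrane protein, 1 h incubation, filter-based scintillation counting. Primary screen in duplicate at 25 uM, actives followed in concentration series; loss of signal fitted versus DMSO.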

[3] = target: human Dopamine Receptor D2 (DRD2), DRD2 (gene 1813) (UniProt P14416); experiment: NVS_GPCR_hDRD2s: NovaScreen (NVS) G Protein-Coupled Receptor Assay for human Dopamine Receptor D2 (DRD2) (AID 2283266)
In short: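 Radioligand displacement used human DRD2 membranes extracted from CHO cells and was read by filter-based scintillation counting after 1.5 hours. Primary screening was in duplicate at 25 uM. Loss of signal versus DMSO was fitted, with concentration series in follow-up.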

[4] = target: guinea pig Bradykinin Receptor B2 (BK2), BDKRB2 (gene 100135486) (UniProt O70526); experiment: NVS_GPCR_gBK2: NovaScreen (NVS) G Protein-Coupled Receptor Assay for guinea pig Bradykinin Receptor B2 (BK2) (AID 2283292)
In short: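 Radioligand displacement on guinea pig ileum membranes for 1 h, read by filter-based scintillation counting; loss of signal relative to DMSO. Compounds were screened in duplicate at 25 uM, and those passing the threshold were retested in concentration-response up to 50 uM.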

[5] = target: rat Glutamate, MK-801 Agonist Site (GluNMDA_MK801), Grin1 (gene 24408) (UniProt P35439); experiment: NVS_LGIC_rGluNMDA_MK801_Agonist: NovaScreen (NVS) Ligand-Gated Ion Channel Assay for rat Glutamate, MK-801 Agonist Site (GluNMDA_MK801) (AID 2283340)
In short: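 Radioligand binding at MK-801 site in rat forebrain membranes, 1.5 h incubation, filter-based scintillation counting. Initially 25 uM in duplicate; actives then run in concentration-response up to 50 uM, fitted for gain of signal versus DMSO.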

[6] = target: Bile acid receptor (Homo sapiens) (UniProt Q96RI1); experiment: NVS_NR_hFXR_Antagonist: NovaScreen (NVS) Nuclear Receptor Binding Assay for human Farnesoid X Receptor Antagonism (FXR) (AID 2283350)
In short: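 Cell-free TR-FRET ligand-binding read-out on human FXR (NR1H4) in antagonist mode, measured 1 h after dosing. Primary screen in duplicate at 25 uM, actives retested in concentration series; signal loss scored versus DMSO.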

[7] = Tanguay_ZF_120hpf_MORT_legacy: (Legacy) Oregon State University Tanguay Lab 120 Hour Post-fertilization zebrafish Assay for Mortality (AID 2283633)
In short: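 Dechorionated Tropical 5D wild-type zebrafish embryos, one per well from 6 hpf, were statically exposed at 28C in the dark until 120 hpf (0.64% DMSO final). Mortality was scored as present/absent by brightfield microscopy, fitted positively versus DMSO.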

[8] = target: human Protein Tyrosine Phosphatase Non-receptor Type 1 (PTPN1), PTPN1 (gene 5770) (UniProt P18031); experiment: NVS_ENZ_hPTPN1: NovaScreen (NVS) Enzymatic Assay for human Protein Tyrosine Phosphatase Non-receptor Type 1 (PTPN1) (AID 2283201)
In short: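 Cell-free fluorogenic-substrate activity assay on recombinant enzyme, read 1.33 h after dosing by fluorescence and electrophoretic mobility shift; loss of signal vs DMSO baseline. Primary screen in duplicate at 25 uM, hits then run in concentration-response up to 50 uM.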

[9] = target: rat Peripheral-type Benzodiazepine Receptor (PBR), Tspo (gene 24230) (UniProt P16257); experiment: NVS_MP_rPBR: NovaScreen (NVS) Membrane Protein Assay for rat Peripheral-type Benzodiazepine Receptor (PBR) (AID 2283335)
In short: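 Radioligand displacement, rat kidney membrane prep, 1 h exposure, filter-based scintillation read; DMSO baseline, loss-of-signal scored. Primary screen at 25 uM in duplicate, actives followed up in concentration series.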

[10] = TOX21_TRB_BLA_Antagonist_Followup_viability: Viability Assessment in the Tox21 Thyroid Hormone Receptor beta Antagonism Beta-lactamase (BLA) Follow-Up Assay (AID 2283961)
In short: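 HEK293T cells stably expressing GAL4-DBD/human TRβ-LBD with UAS-bla reporter, 3,000 cells/well in phenol red-free DMEM, 2% charcoal-stripped FBS. Compounds at 11 concentrations in triplicate, 18 h at 37C/5% CO2; viability by CellTiter-Glo luminescence after 30 min at room temperature.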

THRB (gene 7068) = THRB (gene 7068) (UniProt P10828); experiment: TOX21_TRB_COA_Antagonist_Followup_ratio: Tox21 Thyroid Hormone Receptor beta Antagonism through Coactivator Recruitment Follow-Up Assay, Ratio (AID 2283967)
In short: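 Cell-free TR-FRET coactivator recruitment with GST-tagged TRβ LBD (5.0 nM) and fluorescein-labeled SRC-2 peptide (200 nM) detected by terbium anti-GST antibody (2 nM). The 520:495 nm emission ratio was normalized to DMSO (0%) and T3 (100%).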

[11] = TOX21_TR_RXR_BLA_Antagonist_Followup_viability: Viability Assessment in the Tox21 Thyroid Hormone Receptor beta Retinoid X Receptor alpha (RXRa) Antagonism Beta-lactamase (BLA) Follow-Up Assay (AID 2283979)
In short: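 RXRa-UAS-bla HEK293T cells seeded 2,500/well in phenol red-free DMEM with 2% charcoal-stripped FBS, attached 5 h, then exposed to compounds at 11 concentrations in triplicate for 16 h at 37C/5% CO2. Viability read by CellTiter-Glo ATP luminescence; bidirectional fit versus DMSO.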

[12] = target: human MAP Kinase-Activated Protein Kinase 2 (MAPKAPK2), MAPKAPK2 (gene 9261) (UniProt P49137); experiment: NVS_ENZ_hMAPKAPK2: NovaScreen (NVS) Enzymatic Assay for human MAP Kinase-Activated Protein Kinase 2 (MAPKAPK2) (AID 2283178)
In short: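 Cell-free recombinant human MAPKAPK2 activity measured by fluorescence with electrophoretic mobility shift separation of substrate and product, 1 hr after dosing. Loss of signal versus DMSO; primary screen at 25 uM, concentration-response up to 50 uM.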

[13] = target: Serine/threonine-protein phosphatase PP1-alpha catalytic subunit (Homo sapiens) (UniProt P62136); experiment: NVS_ENZ_hPPP1CA: NovaScreen (NVS) Enzymatic Assay for human Protein Phosphatase 1 Aatalytic subunit Alpha (PPP1CA) (AID 2283200)
In short: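 Recombinant enzyme activity read by fluorescence with electrophoretic mobility shift separating substrate from product, 1.33 h after dosing; loss of signal vs DMSO baseline. Primary screen in duplicate at 25 uM; actives retested in concentration-response up to 50 uM.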

[14] = NVS_IC_rCaDHPRCh_L: NovaScreen (NVS) Ion Channel Assay for rat Calcium Channel, Type L, Dihydropyridine Site (CaDHPRCh_L) (AID 2283320)
In short: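 Radioligand binding to dihydropyridine site on rat cortical membranes, filter-based scintillation counting, 1 h after dosing. Screened in duplicate at 25 uM; actives rerun in concentration-response up to 50 uM. Loss of signal versus DMSO baseline.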

[15] = target: rat Gamma-Aminobutyric Acid Type A Receptor, Non-Selective (GABAR-NonSelective), Gabra1 (gene 29705) (UniProt P62813); experiment: NVS_LGIC_rGABAR_NonSelective: NovaScreen (NVS) Ligand-Gated Ion Channel Assay for rat Gamma-Aminobutyric Acid Type A Receptor, Non-Selective (GABAR-NonSelective) (AID 2283326)
In short: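 Radioligand displacement on rat whole-brain extract, 1 h, filter scintillation readout; signal loss fitted versus DMSO. Primary screen in duplicate at 25 uM; hits (e.g. ≥30% inhibition) retested in concentration-response up to 50 uM.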

[16] = target: human Caspase 4 (CASP4), CASP4 (gene 837) (UniProt P49662); experiment: NVS_ENZ_hCASP4: NovaScreen (NVS) Enzymatic Assay for human Caspase 4 (CASP4) (AID 2283143)
In short: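 The cell-free assay used E. coli-expressed enzyme with a fluorogenic substrate, read 2 h after dosing. Signal loss was scored versus DMSO. Screening was in duplicate at 25 uM, then singleton concentration-response up to 50 uM.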

[17] = target: human Rho Associated Coiled-coil Containing Protein Kinase 1 (ROCK1), ROCK1 (gene 6093) (UniProt Q13464); experiment: NVS_ENZ_hROCK1: NovaScreen (NVS) Enzymatic Assay for human Rho Associated Coiled-coil Containing Protein Kinase 1 (ROCK1) (AID 2283214)
In short: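 Cell-free recombinant human ROCK1 activity assay; fluorescent substrate and product separated by electrophoretic mobility shift, read 1 h after dosing. Screened in duplicate at 25 uM; loss of signal versus DMSO baseline scored as inhibition.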

[18] = target: bovine Gamma-Aminobutyric Acid Type A Receptor Agonist (GABAR Agonist), GABRA1 (gene 780973) (UniProt P08219); experiment: NVS_LGIC_bGABAR_Agonist: NovaScreen (NVS) Ligand-Gated Ion Channel Assay for bovine Gamma-Aminobutyric Acid Type A Receptor Agonist (GABAR Agonist) (AID 2283338)
In short: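 Radioligand binding to bovine cerebellar membranes in agonist format, read by filter-based scintillation counting after 1 h. Primary screen in duplicate at 25 uM, with actives followed in concentration series. Gain of signal versus DMSO.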

[19] = target: human CYP2A6, CYP2A6 (gene 1548) (UniProt P11509); experiment: NVS_ADME_hCYP2A6: NovaScreen (NVS) CYP450-related Enzyme Activity (ADME) Assay for human CYP2A6 (AID 2283099)
In short: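 Cell-free fluorescence readout of recombinant human CYP2A6 expressed in insect cells, read 0.5 h after dosing; loss of signal versus acetonitrile negative control. Primary screen in duplicate at 10 uM; actives re-run in concentration-response up to 20 uM.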

CCOC(=O)C(C)(C)Oc1ccc(Cl)cc1
AC50 [1]: inconclusive: 25 µM
AC50 [2]: inconclusive: 25 µM
AC50 [3]: inconclusive: 0.315 µM
AC50 [4]: inconclusive: 25 µM
AC50 [5]: inconclusive: 0.248 µM
AC50 [6]: inconclusive: 6.02 µM
outcome [7]: inactive

CC(C)NCC(O)c1ccc(O)c(O)c1 (stereo not given)
AC50 [8]: inconclusive: 25 µM

Clc1ccc(Nc2nnc(Cc3ccncc3)c3ccccc23)cc1
AC50 [9]: inconclusive: 0.18 µM
AC50 [10]: inconclusive: 10.6 µM
AC50 (THRB (gene 7068)): inconclusive: 19.2 µM
AC50 [11]: inconclusive: 3.8 µM

CN(C)C(=O)NC1(c2ccccc2)CCN(CC[C@@]2(c3ccc(F)c(F)c3)CN(C(=O)c3ccccc3)CCO2)CC1
AC50 [12]: inconclusive: 0.21 µM
outcome [13]: inactive
AC50 [14]: active: 3.38 µM
AC50 [15]: inconclusive: 0.193 µM

O=C(O)CCN(C1(C(=O)NO)CCCC1)S(=O)(=O)c1ccc(Oc2ccc(F)cc2)cc1
AC50 [16]: inconclusive: 0.0933 µM
outcome [17]: inactive
AC50 [18]: active: 7.72 µM

S=c1[nH]c2ccccc2s1
AC50 [19]: active: 4.85 µM
